# Where “and” joins values, the source holds several entries; their conditions need not be identical. Equal entries are not always repeated. The whole screen tested about 400,000 compounds, of which about 13,000 (3.2%) were called active. This list was built around the results that the source calls inconclusive (neither active nor inactive); the mix of calls is not that of the screen. The call rests on the fitted dose curve; in most records, active means well fitted cell-killing curve with a large enough effect; inconclusive means small, poorly fitted or top-dose-only effect, or effect the other way; inactive means flat fitted curve, though single readings scatter. Where the call is inconclusive, the potency comes from a doubtful curve fit.
# Test: qHTS assay for MDR1-selective chemotherapeutics: Primary screen using the drug-selected MDR subline cells KB-V1; further: nearly all actives have a fitted effect of over 60% in size
# Settings: KB-V1 MDR cells viability, CellTiter-Glo, 72 h; activity change, negative = cytotoxicity: at 46.1 µM (top of the series)
# Procedure, shortened: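 Luminescent ATP read-out (CellTiter-Glo, 10 min) measures survival of drug-selected KB-V1 MDR cells after 72 h, 37 degrees C compound exposure. Medium: phenol-red-free DMEM, 10% FBS. Values from fitted concentration-response curves.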
# On the % scale 0 is the no-effect control and ±100 the full control effect; potency means the concentration at half of the fitted maximal effect.
Compound,Potency,"activity change, negative = cytotoxicity"
CCc1cccc(NS(=O)(=O)c2ccc3c(c2)oc(=O)n3C)c1,active: 4.61 µM,
Cc1ccc(-c2csc(NC(=O)c3ccc(-c4ccccc4)cc3)n2)o1,active: 14.6 µM,
CC(=O)Nc1nnc(COc2ccc(Cl)cc2)s1,,inactive: -2.38%
CC(C)c1ccc(Nc2ncc3c(n2)CCN(C(=O)Nc2ccc(F)c(Cl)c2)C3)cc1,active: 18.4 µM,
CCCNC(=O)C1CCN(c2ccc(S(=O)(=O)N3CCOCC3)cc2Cl)CC1,"inconclusive: 20.6 µM [cytotoxic, partial curve, poor fit]",
Cc1nn(CC2CC2)c(=O)n1N(C)c1ncc(C(F)(F)F)cc1Cl,"inconclusive: 29.1 µM [cytotoxic, partial curve, poor fit]",
Nc1ncnc(Oc2cccc3cccnc23)c1[N+](=O)[O-],,inactive: 6.21%
COc1cc2cc(Oc3ccc4ccc(=O)oc4c3)c(=O)oc2cc1OC(=O)/C=C/c1ccccc1,"inconclusive: 20.6 µM [rising, single point]",
O=C(/C=C/c1ccccc1)Oc1cccc2cccnc12,,inactive: 6.29%
CCOC(=O)Cc1csc(NC(=O)CSc2ncnc3c2cnn3-c2ccc(OC)cc2)n1,,inactive: -7.34%
COc1cc(/C=C2/SC(=S)N(CC(=O)NNC(=O)c3ccc(F)cc3)C2=O)cc(OC)c1OC,"inconclusive: 5.17 µM [rising, partial curve, poor fit]",
O=C1CCN(Cc2ccc(Br)cc2)CCN1[C@H](CO)Cc1ccccc1,"inconclusive: 18.4 µM [cytotoxic, single point] and inconclusive: 29.1 µM [cytotoxic, single point]",
COc1ccc(NC(=O)N(C)C[C@H]2Oc3ncc(C#C[C@@H](C)O)cc3C(=O)N([C@H](C)CO)C[C@H]2C)cc1,,inactive: -2.19%
C=CCn1c(O)c(N=NC(=S)Nc2ccccc2C)c2cc(S(=O)(=O)N3CCOCC3)ccc21,"inconclusive: 2.91 µM [cytotoxic, full curve]",
CCC(CC)C(=O)Nc1ccc(Sc2ccc([N+](=O)[O-])cc2)cc1,"inconclusive: 23.1 µM [cytotoxic, single point]",
COc1ccc(CN2C(=O)c3cccnc3C2=O)cc1S(=O)(=O)N1CCOc2ccc(Cl)cc21,"inconclusive: 14.6 µM [rising, partial curve, poor fit]",
Cc1ccc(F)c([C@H]2[C@@H]3C=CCC[C@@]3(C)C(=O)N2Cc2ccccc2)c1,,inactive: -6.62%
COCCCNC(=O)c1cccc(NC(=O)c2ccccc2)c1,"inconclusive: 20.6 µM [cytotoxic, partial curve]",

# Single values from the entries so far.
# Entry of COc1ccc(NC(=O)N(C)C[C@H]2Oc3ncc(C#C[C@@H](C)O)cc3C(=O)N([C@H](C)CO)C[C@H]2C)cc1 under activity change, negative = cytotoxicity: inactive: -2.19%
# Entry of O=C1CCN(Cc2ccc(Br)cc2)CCN1[C@H](CO)Cc1ccccc1 under Potency: inconclusive: 18.4 µM [cytotoxic, single point] and inconclusive: 29.1 µM [cytotoxic, single point]

# — PubChem BioAssay AID1347076 (National Center for Advancing Translational Sciences (NCATS), 2019)
